Experimental data: paper PMC6396947

Sequences of proteins named here, by UniProt entry; tags and fusion partners are left off.
UniProt Q56NI9: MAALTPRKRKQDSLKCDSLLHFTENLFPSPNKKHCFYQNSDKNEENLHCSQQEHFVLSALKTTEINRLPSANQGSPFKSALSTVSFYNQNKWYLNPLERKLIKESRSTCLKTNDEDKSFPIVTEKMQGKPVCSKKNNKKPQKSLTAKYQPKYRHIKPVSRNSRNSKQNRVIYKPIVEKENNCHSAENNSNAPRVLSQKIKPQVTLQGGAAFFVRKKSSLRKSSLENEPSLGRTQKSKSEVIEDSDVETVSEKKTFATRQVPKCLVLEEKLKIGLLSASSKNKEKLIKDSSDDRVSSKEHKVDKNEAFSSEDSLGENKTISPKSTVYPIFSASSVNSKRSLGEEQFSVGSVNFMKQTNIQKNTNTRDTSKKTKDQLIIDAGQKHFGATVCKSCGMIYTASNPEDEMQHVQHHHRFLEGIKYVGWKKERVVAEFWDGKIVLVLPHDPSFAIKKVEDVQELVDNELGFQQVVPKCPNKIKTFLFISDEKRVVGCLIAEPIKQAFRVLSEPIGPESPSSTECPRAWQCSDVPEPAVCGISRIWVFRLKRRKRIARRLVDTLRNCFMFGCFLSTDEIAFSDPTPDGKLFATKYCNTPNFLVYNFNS
UniProt P12004: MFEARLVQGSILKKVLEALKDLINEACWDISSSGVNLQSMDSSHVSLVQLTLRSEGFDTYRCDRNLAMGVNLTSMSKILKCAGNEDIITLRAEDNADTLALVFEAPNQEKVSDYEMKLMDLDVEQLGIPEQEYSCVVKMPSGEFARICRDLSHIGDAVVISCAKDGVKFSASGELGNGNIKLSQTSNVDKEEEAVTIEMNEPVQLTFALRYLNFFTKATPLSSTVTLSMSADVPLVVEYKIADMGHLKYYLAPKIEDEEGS
UniProt Q16531: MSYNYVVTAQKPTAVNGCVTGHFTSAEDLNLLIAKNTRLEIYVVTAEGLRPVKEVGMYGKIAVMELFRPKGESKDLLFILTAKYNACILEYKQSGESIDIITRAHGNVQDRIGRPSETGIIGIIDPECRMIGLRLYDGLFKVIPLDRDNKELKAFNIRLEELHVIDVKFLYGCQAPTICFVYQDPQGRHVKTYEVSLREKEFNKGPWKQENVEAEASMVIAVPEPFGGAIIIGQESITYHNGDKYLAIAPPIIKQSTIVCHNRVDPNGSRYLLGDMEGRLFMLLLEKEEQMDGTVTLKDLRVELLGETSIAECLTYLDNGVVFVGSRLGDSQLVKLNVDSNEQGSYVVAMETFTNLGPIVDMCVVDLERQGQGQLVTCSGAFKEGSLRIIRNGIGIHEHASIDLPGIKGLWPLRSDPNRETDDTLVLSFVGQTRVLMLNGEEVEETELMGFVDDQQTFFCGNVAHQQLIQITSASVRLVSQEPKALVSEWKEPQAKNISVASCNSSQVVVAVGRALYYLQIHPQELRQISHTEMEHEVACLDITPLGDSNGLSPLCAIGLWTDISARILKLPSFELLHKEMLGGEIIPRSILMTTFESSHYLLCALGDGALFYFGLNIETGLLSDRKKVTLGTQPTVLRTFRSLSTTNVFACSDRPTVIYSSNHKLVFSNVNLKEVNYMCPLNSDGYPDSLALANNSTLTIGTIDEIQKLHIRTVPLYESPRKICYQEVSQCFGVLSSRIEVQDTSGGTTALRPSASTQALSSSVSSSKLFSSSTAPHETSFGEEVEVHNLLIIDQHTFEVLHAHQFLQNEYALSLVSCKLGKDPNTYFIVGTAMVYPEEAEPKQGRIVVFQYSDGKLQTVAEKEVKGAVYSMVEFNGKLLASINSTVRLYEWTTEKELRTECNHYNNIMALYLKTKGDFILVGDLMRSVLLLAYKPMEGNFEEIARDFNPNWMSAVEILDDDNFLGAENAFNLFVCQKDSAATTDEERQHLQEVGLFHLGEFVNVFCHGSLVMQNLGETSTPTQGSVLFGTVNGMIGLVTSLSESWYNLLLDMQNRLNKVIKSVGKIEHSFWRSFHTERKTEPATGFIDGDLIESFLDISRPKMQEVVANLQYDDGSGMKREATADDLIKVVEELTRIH

Columns and labels:
[1] = target: ESCO2-HF (human) (UniProt Q56NI9); assay: affinity purification with mass spectrometry; ESCO2-HF over-expressed in 293T; tandem purification from whole cell extracts on anti-FLAG M2 and Ni2+ gels, eluted with FLAG peptide and 300 mM imidazole; final eluates analysed by MS; three repeats; untagged cells and ESCO1-HF as controls
[2] = target: ESCO2-HF (human) (UniProt Q56NI9); assay: as above; remark: listed apart in the source

binding [1] | binding [2] | Molecule
binds weakly | – | PCNA (endogenous, ESCO2-IP/MS) (from UniProt P12004 1-261)
binds | – | DDB1 (endogenous, co-purified with ESCO2-HF) (from UniProt Q16531 1-1140)
– | binds weakly | MMS22L (endogenous, ESCO2-IP/MS) (protein, UniProt Q6ZRQ5 1-1243) MENCSAASTFLTDSLELELGTEWCKPPYFSCAVDNRGGGKHFSGESYLCSGALKRLILNLDPLPTNFEEDTLEIFGIQWVTETALVNSSRELFHLFRQQLYNLETLLQSSCDFGKVSTLHCKADNIRQQCVLFLHYVKVFIFRYLKVQNAESHVPVHPYEALEAQLPSVLIDELHGLLLYIGHLSELPSVNIGAFVNQNQIKLFPPSWHLLHLHLDIHWLVLEILYMLGEKLKQVVYGHQFMNLASDNLTNISLFEEHCETLLCDLISLSLNRYDKVRSSESLMSDQCPCLCIKELWVLLIHLLDHRSKWFVSESFWNWLNKLLKTLLEKSSDRRRSSMPVIQSRDPLGFSWWIITHVASFYKFDRHGVPDEMRKVESNWNFVEELLKKSISVQGVILEEQLRMYLHCCLTLCDFWEPNIAIVTILWEYYSKNLNSSFSISWLPFKGLANTMKSPLSMLEMVKTCCCDKQDQELYKSSSSYTIFLCILAKVVKKAMKSNGPHPWKQVKGRIYSKFHQKRMEELTEVGLQNFFSLFLLLAAVAEVEDVASHVLDLLNFLKPAFVTSQRALIWKGHMAFLLMYAQKNLDIGVLAEKFSCAFREKAKEFLVSKNEEMVQRQTIWTLLSIYIDGVQEVFETSYCLYPSHEKLLNDGFSMLLRACRESELRTVLSFLQAVLARIRSMHQQLCQELQRDNVDLFVQSSLSAKERHLAAVASALWRHFFSFLKSQRMSQVVPFSQLADAAADFTLLAMDMPSTAPSDFQPQPVISIIQLFGWDDIICPQVVARYLSHVLQNSTLCEALSHSGYVSFQALTVRSWIRCVLQMYIKNLSGPDDLLIDKNLEEAVEKEYMKQLVKLTRLLFNLSEVKSIFSKAQVEYLSISEDPKKALVRFFEAVGVTYGNVQTLSDKSAMVTKSLEYLGEVLKYIKPYLGKKVFSAGLQLTYGMMGILVKSWAQIFATSKAQKLLFRIIDCLLLPHAVLQQEKELPAPMLSAIQKSLPLYLQGMCIVCCQSQNPNAYLNQLLGNVIEQYIGRFLPASPYVSDLGQHPVLLALRNTATIPPISSLKKCIVQVIRKSYLEYKGSSPPPRLASILAFILQLFKETNTDIYEVELLLPGILKCLVLVSEPQVKRLATENLQYMVKACQVGSEEEPSSQLTSVFRQFIQDYGMRYYYQVYSILETVATLDQQVVIHLISTLTQSLKDSEQKWGLGRNIAQREAYSKLLSHLGQMGQDEMQRLENDNT

Where two headings read alike, the source gives them in different places. Results are given in words; binding and its absence hold for the method and conditions named. Binding seen in cells or lysates may run through a third protein. Here binding means that the protein was enriched with, or labelled near, the bait; the list need not be complete.
